Reference: US12496349B2, “Macromolecular prodrug-based thermosensitive injectable gel as a novel drug delivery platform” (priority 2018, dated 2025)

Tested on: monoiodoacetate-induced osteoarthritis (MIA) mice model
Settings: mouse, in vivo

## C[C@@H]1C[C@H]2[C@@H]3CCC4=CC(=O)C=C[C@]4(C)[C@@]3(F)[C@@H](O)C[C@]2(C)[C@@]1(O)C(=O)COP(=O)(O)O [Dex, dexamethasone sodium phosphate]
  peri-articular bone structure of the knee joint (micro-CT images): Bone damage was also found
